In patent US20250036036A1, “ELECTROPHOTOGRAPHIC PHOTOCONDUCTOR, ELECTROPHOTOGRAPHIC PHOTOCONDUCTOR CARTRIDGE, IMAGE FORMATION DEVICE, AND COMPOUND” (MITSUBISHI CHEMICAL CORPORATION, priority 2022, published 2025):

Assay: Electrical properties: residual potential (VL) of single-layered photoconductor with protective layer
Conditions: 780 nm 1.3 μJ/cm^2, 60 ms after irradiation, 25° C., 50% RH

Structure (SMILES) | Residual potential VL (V) (protective layer: electron transporting compound 100 parts / M9050 100 parts, THF/2-propanol 3/7, V0 +700 V) | Residual potential VL (V) (protective layer: electron transporting compound 100 parts / M9050 50 parts, toluene/2-propanol 3/7, V0 +700 V)
C=CC(=O)OCCOC(=O)CCC(=O)OCC(CC(C)C)N1C(=O)c2ccc3c4c(ccc(c24)C1=O)C(=O)N(C(COC(=O)CCC(=O)OCCOC(=O)C=C)CC(C)C)C3=O (centres unmarked) [Comparative compound 2] | 205 | –
C=C(C)C(=O)OCC(COC(=O)C(=C)C)OC(=O)CCC(=O)OCC(CC(C)C)N1C(=O)c2ccc3c4c(ccc(c24)C1=O)C(=O)N(CC(CC)CCCC)C3=O (centres unmarked) [Compound 1] | – | 309
